Measurements as given in article doi:10.1101/2023.05.05.539603.
These are yes or no findings as the source states them, for the method shown. In cells and extracts the contact can be indirect. Some results given as binding are weak or reduced against the parent protein; the word gives no strength. Where a sequence is shown, tags or fusion partners need not be part of it.

Sequences of proteins named here, by UniProt entry; tags and fusion partners are left off. A change or cut given only in a name is not applied to a line headed by its entry.
UniProt Q9NQG6, whole entry: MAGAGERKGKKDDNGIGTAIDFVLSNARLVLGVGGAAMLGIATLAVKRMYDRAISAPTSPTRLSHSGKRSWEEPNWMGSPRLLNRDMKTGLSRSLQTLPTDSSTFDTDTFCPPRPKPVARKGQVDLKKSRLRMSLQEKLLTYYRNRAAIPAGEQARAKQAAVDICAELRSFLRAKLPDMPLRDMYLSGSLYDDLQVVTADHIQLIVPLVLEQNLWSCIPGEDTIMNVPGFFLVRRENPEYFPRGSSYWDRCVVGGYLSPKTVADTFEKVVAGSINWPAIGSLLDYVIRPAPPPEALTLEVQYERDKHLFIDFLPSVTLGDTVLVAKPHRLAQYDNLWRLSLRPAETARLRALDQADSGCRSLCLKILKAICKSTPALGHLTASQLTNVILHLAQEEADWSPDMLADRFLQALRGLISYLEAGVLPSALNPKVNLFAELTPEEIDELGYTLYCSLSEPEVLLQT

How the values were obtained:
Assay in all cases: co-IP
[1] = target: T1, CFP-MFF 2SA (S155A/S172A) (human) (UniProt Q9GZY8)
T1 sequence: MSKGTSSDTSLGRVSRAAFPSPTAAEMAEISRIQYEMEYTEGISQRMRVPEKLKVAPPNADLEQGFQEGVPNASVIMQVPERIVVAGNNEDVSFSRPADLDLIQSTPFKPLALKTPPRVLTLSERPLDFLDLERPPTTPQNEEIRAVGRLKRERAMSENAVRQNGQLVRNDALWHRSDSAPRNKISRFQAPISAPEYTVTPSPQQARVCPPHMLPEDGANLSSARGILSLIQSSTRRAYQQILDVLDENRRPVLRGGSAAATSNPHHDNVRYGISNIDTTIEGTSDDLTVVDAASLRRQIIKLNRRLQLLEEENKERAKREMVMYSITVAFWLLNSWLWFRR

[2] = target: T2, CFP-MFF 2SD (S155D/S172D) (human) (UniProt Q9GZY8)
T2 sequence: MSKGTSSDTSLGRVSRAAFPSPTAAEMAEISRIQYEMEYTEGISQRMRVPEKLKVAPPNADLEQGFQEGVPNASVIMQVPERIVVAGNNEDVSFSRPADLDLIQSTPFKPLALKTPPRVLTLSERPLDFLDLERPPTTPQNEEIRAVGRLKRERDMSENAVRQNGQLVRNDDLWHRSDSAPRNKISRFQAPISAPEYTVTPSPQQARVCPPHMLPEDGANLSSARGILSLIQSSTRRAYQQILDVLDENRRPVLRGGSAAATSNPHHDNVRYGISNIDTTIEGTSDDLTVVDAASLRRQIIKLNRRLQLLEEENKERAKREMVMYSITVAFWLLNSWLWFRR

CFP-MFF K151R (human) = target: T3, CFP-MFF K151R (human) (UniProt Q9GZY8)
T3 sequence: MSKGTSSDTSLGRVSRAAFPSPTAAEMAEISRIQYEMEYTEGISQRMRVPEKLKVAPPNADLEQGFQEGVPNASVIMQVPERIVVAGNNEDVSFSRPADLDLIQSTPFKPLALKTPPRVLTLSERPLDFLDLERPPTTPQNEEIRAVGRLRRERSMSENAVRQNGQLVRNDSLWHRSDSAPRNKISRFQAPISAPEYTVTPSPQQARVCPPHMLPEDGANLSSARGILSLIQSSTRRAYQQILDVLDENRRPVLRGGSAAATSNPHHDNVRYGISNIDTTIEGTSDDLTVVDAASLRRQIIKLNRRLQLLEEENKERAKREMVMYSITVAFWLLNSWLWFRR

[3] = target: T4, CFP-MFF WT (mitochondrial fission factor, human isoform 1) (human) (UniProt Q9GZY8)
T4 sequence: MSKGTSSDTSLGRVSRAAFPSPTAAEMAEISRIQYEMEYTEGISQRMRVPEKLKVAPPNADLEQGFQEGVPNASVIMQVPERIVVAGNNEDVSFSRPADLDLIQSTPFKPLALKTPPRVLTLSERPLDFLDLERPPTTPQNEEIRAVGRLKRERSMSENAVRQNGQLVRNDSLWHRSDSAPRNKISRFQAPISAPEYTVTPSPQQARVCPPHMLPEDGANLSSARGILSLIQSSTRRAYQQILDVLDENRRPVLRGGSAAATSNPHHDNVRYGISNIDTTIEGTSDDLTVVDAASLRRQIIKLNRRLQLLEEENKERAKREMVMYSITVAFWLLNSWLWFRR

GFP-MFF K151R (human) = target: T5, GFP-MFF K151R (human) (UniProt Q9GZY8)
T5 sequence: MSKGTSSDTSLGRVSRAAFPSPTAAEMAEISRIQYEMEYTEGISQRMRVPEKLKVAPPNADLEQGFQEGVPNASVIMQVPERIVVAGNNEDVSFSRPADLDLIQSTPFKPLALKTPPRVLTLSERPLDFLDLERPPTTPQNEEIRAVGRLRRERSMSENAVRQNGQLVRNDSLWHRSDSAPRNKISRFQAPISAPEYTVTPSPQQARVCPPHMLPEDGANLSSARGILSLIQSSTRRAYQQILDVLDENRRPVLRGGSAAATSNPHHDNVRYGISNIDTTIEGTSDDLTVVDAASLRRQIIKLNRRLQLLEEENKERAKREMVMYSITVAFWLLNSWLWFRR

[4] = target: T6, GFP-MFF WT (pAcGFP-tagged human MFF isoform 1) (human) (UniProt Q9GZY8)
T6 sequence: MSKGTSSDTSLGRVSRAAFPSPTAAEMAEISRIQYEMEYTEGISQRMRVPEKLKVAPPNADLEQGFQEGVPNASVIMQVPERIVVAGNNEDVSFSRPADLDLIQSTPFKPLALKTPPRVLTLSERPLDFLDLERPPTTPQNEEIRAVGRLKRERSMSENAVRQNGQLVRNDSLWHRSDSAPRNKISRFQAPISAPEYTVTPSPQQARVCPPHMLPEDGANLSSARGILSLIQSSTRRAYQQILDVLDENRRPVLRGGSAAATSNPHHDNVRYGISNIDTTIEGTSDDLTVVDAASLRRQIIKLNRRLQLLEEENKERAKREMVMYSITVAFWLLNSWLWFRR

Measured: binding

MiD51-HA (from UniProt Q9NQG6 1-463)
binds: all assays above

endogenous MiD51 (from UniProt Q9NQG6 1-463)
binds: GFP-MFF K151R (human) | [4]

B1: endogenous MiD49 (protein, UniProt Q96C03 1-454)
chain: MAEFSQKRGKRRSDEGLGSMVDFLLANARLVLGVGGAAVLGIATLAVKRFIDRATSPRDEDDTKADSWKELSLLKATPHLQPRPPPAALSQPVLPLAPSSSAPEGPAETDPEVTPQLSSPAPLCLTLQERLLAFERDRVTIPAAQVALAKQLAGDIALELQAYFRSKFPELPFGAFVPGGPLYDGLQAGAADHVRLLVPLVLEPGLWSLVPGVDTVARDPRCWAVRRTQLEFCPRGSSPWDRFLVGGYLSSRVLLELLRKALAASVNWPAIGSLLGCLIRPSMASEELLLEVQHERLELTVAVLVAVPGVDADDRLLLAWPLEGLAGNLWLQDLYPVEAARLRALDDHDAGTRRRLLLLLCAVCRGCSALGQLGRGHLTQVVLRLGEDNVDWTEEALGERFLQALELLIGSLEQASLPCHFNPSVNLFSSLREEEIDDIGYALYSGLQEPEGLL
binds: [1] | [2] | CFP-MFF K151R (human) | [3]

B2: MiD49-HA (protein, UniProt Q96C03 1-454)
chain: MAEFSQKRGKRRSDEGLGSMVDFLLANARLVLGVGGAAVLGIATLAVKRFIDRATSPRDEDDTKADSWKELSLLKATPHLQPRPPPAALSQPVLPLAPSSSAPEGPAETDPEVTPQLSSPAPLCLTLQERLLAFERDRVTIPAAQVALAKQLAGDIALELQAYFRSKFPELPFGAFVPGGPLYDGLQAGAADHVRLLVPLVLEPGLWSLVPGVDTVARDPRCWAVRRTQLEFCPRGSSPWDRFLVGGYLSSRVLLELLRKALAASVNWPAIGSLLGCLIRPSMASEELLLEVQHERLELTVAVLVAVPGVDADDRLLLAWPLEGLAGNLWLQDLYPVEAARLRALDDHDAGTRRRLLLLLCAVCRGCSALGQLGRGHLTQVVLRLGEDNVDWTEEALGERFLQALELLIGSLEQASLPCHFNPSVNLFSSLREEEIDDIGYALYSGLQEPEGLL
binds: [1] | [2] | CFP-MFF K151R (human) | [3]
